Measured data: PubChem BioAssay AID1259425 (University of Nebraska Medical Center, 2018)
This is a random part of about 14,000 reagents tested. Further read-outs or replicates are left out here. Not given: the time to read-out.

- Aim: 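Compare each knockdown with KSR1 silencing using changes in marker transcripts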 (primary screen)
- Cells: HCT116 human colon cancer cells
- Reagent: siRNA pool against human genes, 50 nM siRNA
- Measurement: 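mRNA of six signature genes measured together by branched-DNA assay after 50 nM siRNA pool, blank removed, divided by geometric mean of two housekeeping genes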
- Reading the numbers: BNIP3L mRNA: higher = more BNIP3L transcript after knockdown; NDRG1 mRNA: higher = more NDRG1 transcript after knockdown; BNIP3 mRNA: higher = more BNIP3 transcript after knockdown; ALDOC mRNA: higher = more ALDOC transcript after knockdown

| Target gene | BNIP3L mRNA, set 1 | NDRG1 mRNA, set 1 | BNIP3 mRNA, set 1 | ALDOC mRNA, set 1 |
| --- | --- | --- | --- | --- |
| CCT4 | 0.151 | 0.104 | 0.398 | 0.0213 |
| MCMBP | 0.117 | 0.187 | 0.243 | 0.0356 |
| KHSRP | 0.189 | 0.432 | 0.604 | 0.0225 |
| SRSF8 | 0.137 | 0.265 | 0.139 | 0.0138 |
| ACADVL | 0.0909 | 0.217 | 0.364 | 0.0268 |
| ACTG2 | 0.0689 | 0.306 | 0.185 | 0.0304 |
| LHX6 | 0.234 | 0.224 | 0.369 | 0.0121 |
| DNAJB4 | 0.258 | 0.305 | 0.302 | 0.0281 |
| TSPAN16 | 0.119 | 0.145 | 0.275 | 0.013 |
| ARSJ | 0.231 | 0.228 | 0.423 | 0.0286 |
| UGT1A3 | 0.0746 | 0.0764 | 0.158 | 0.0145 |
| PIAS4 | 0.0331 | 0.0858 | 0.256 | 0.0101 |
| CDH8 | 0.0604 | 0.123 | 0.187 | 0.0127 |
| CLDND1 | 0.173 | 0.641 | 0.365 | 0.0399 |
| DCUN1D1 | 0.0762 | 0.168 | 0.242 | 0.00736 |
| CAMK2N1 | 0.0457 | 0.182 | 0.186 | -0.0202 |
| TTC21B | 0.0784 | 0.247 | 0.364 | 0.0805 |
| RAB11FIP1 | 0.0839 | 0.0659 | 0.238 | 0.0137 |
| LAMTOR5 | 0.11 | 0.274 | 0.286 | 0.0571 |
| TMEM126B | 0.093 | 0.145 | 0.235 | 0.028 |
| TVP23B | 0.0868 | 0.352 | 0.406 | 0.0115 |
| PRAMEF2 | 0.238 | 0.784 | 0.399 | 0.049 |
| CXCL13 | 0.0917 | 0.0856 | 0.147 | 0.0147 |
| SIPA1L3 | 0.083 | 0.283 | 0.102 | 0.00832 |
| TUBA8 | 0.0488 | 0.16 | 0.277 | 0.0177 |

2 entries from above, sorted by “BNIP3L mRNA, set 1”, descending.
| Target gene | BNIP3L mRNA, set 1 | NDRG1 mRNA, set 1 | BNIP3 mRNA, set 1 | ALDOC mRNA, set 1 |
| --- | --- | --- | --- | --- |
| PRAMEF2 | 0.238 | 0.784 | 0.399 | 0.049 |
| CXCL13 | 0.0917 | 0.0856 | 0.147 | 0.0147 |

Additional results:
| Target gene | BNIP3L mRNA, set 1 | NDRG1 mRNA, set 1 | BNIP3 mRNA, set 1 | ALDOC mRNA, set 1 |
| --- | --- | --- | --- | --- |
| MTPAP | 0.118 | 0.146 | 0.247 | 0.0188 |
| DHX8 | 0.0916 | 0.0663 | 0.341 | 0.0313 |
| KRIT1 | 0.0596 | 0.0782 | 0.235 | 0.0299 |
| ICA1 | 0.053 | 0.93 | 0.372 | 0.0367 |
| PPP1R14D | 0.14 | 0.0882 | 0.29 | 0.0213 |
| OR2A5 | 0.0943 | 0.27 | 0.287 | 0.0249 |
| NACAD | 0.0634 | 0.428 | 0.481 | 0.0325 |
| ABRAXAS1 | 0.196 | 0.352 | 0.194 | 0.0715 |
| TMEM50A | 0.258 | 0.578 | 0.695 | 0.146 |
| VPS45 | 0.198 | 0.132 | 0.305 | 0.0312 |
| FAM20C | 0.157 | 0.347 | 0.244 | 0.0296 |
| CFAP68 | 0.118 | 0.0378 | 0.315 | 0.0131 |
| MEP1B | 0.119 | 1.27 | 0.385 | 0.0433 |
| GPD2 | 0.0937 | 0.124 | 0.256 | 0.0286 |
| PRDM2 | 0.0755 | 0.0918 | 0.262 | 0.0114 |
| TCF20 | 0.0817 | 0.0806 | 0.234 | 0.0197 |
| ANP32B | 0.0678 | 0.189 | 0.321 | 0.0191 |
| VEGFA | 0.1 | 0.0632 | 0.242 | 0.027 |
| CRYBB2 | 0.15 | 0.234 | 0.353 | 0.00937 |
| SFI1 | 0.173 | 0.52 | 0.503 | 0.0616 |
| RNF121 | 0.102 | 0.291 | 0.344 | 0.0348 |
| CTPS1 | 0.0725 | 0.261 | 0.308 | 0.027 |
| TLE1 | 0.111 | 0.335 | 0.317 | 0.019 |
| KCNJ13 | 0.0714 | 0.297 | 0.276 | 0.0261 |
| GADD45A | 0.0476 | 0.103 | 0.237 | 0.011 |
